The list shows a part of the results.
B1: il10ra_site1_sap_24_mot_HHH_b1_05056_000000217_0001_1_20_H_._HHH_b1_04321_0001_0000100017_0000001_0_0001 (protein)
chain: SSSSDEEDEEVLRLAREAFRLALRGNPEEARRVLEEAIEIAREIGNERALEMLERLLKTQSSSSS
B2: il10ra_site1_normal_mot_HHH_b2_06857_af2_000000179_0001_42_54_H_._HHH_b2_01301_af2_0001_0000300025_0000001_0 (protein)
chain: SSSSDEEAQEVYELIRRAAELHFNGNDEEAEEVAQKALELAEEAGNELLRWQIEFLLRLISSSSS
B3: il10ra_site1_sap_10_mot_HHH_b2_07145_000000158_0001_24_40_H_._HHH_b2_04742_0001_0000200025_0000001_0_0001 (protein)
chain: SSSSSEEVEELLEELRKALEEGDEELFVELFVRVSRAAQELNDHELAEEIQRLAIEFLALSSSSS
B4: il10ra_site1_normal_mot_HHH_b2_00984_000000042_0001_1_20_H_._HHH_b1_03108_0001_0000200016_0000002_0 (protein)
chain: SSSSSDLEERVEELLREAEELAENGDPREAARVLQEVTRFALENNNAELLQEIWKVIKELSSSSS
B5: il10ra_site1_normal_mot_8756ee2cf497b5429c717dfc0c0bcfd6_0001_000000186_0001_1_13_H_._HHH_b2_02799_af2_0001_0000400017_0000001_0_af2pred_0001 (protein)
chain: SSSSDHAEEVAEALREALELLREGDPERAQELVEEALELAEEANDAISEAQLRFLLEHIRGSSSS
B6: il10ra_site1_sap_15_mot_HHH_b2_08265_af2_000000206_0001_22_38_H_._HHH_b1_07069_af2_0001_0000300008_0000001_0_0001 (protein)
chain: SSSDKAAHRVYELLKEALELLAEGDPEEAERVLEEARELAEELGDHVMRRIIEFIERDIENSSSS
B7: il10ra_site1_normal_mot_HHH_b1_02062_000000185_0001_1_20_H_._HHH_b1_02576_0001_0000500037_0000002_0 (protein)
chain: SSSSTEERREIYELSRELARLISEGNEEEAEKVVEEVRRLIEELGNILLEFVLRQLERDLNSSSS
B8: il10ra_site1_normal_mot_8756ee2cf497b5429c717dfc0c0bcfd6_0001_000000186_0001_1_13_H_._HHH_b2_00335_af2_0001_0000300021_0000001_0_af2pred_0001 (protein)
chain: SSSSSDRLRELLELLRRIIELSRDGDPEEARKLIEEAQELAEELNDEVAKAILEFLEEHVNSSSS
B9: il10ra_site1_normal_mot_HHH_b1_06128_000000102_0001_1_20_H_._HHH_b1_04396_0001_0000800047_0000001_0 (protein)
chain: SSSSDEFSRLALRAARLFIRGDFEELEKVLEELEEVAEKLNDEAAERAVEQIERALRALESSSSS
B10: il10ra_site1_sap_14_mot_HHH_b2_06864_af2_000000190_0001_1_20_H_._cd5f43eff521500bc79474903aa2b2a0_0001_1_0001_0000500018_0000001_0_0001 (protein)
chain: SSSSTLEELTEAALRLAEQALEWGDPEAAERLLEALLKVLRAEGNEELVELVEELLEEVRNSSSS
B11: il10ra_site1_sap_27_mot_HHH_b1_00999_000000080_0001_41_55_H_._HHH_b2_06597_0001_0000200012_0000001_0_0001 (protein)
chain: SSSDTHEVYRLSKKIMELIYEGDREEAERLLEEAQEIAEELGDRVFKHALEIIERALEERFSSSS
B12: il10ra_site1_normal_mot_HHH_b2_00943_af2_000000149_0001_1_17_H_._HHH_b1_07752_af2_0001_0000300008_0000001_0 (protein)
chain: SSSSDNVEFLVRQAEEAAELAAEFNDKEKLEHILEILEVLLEQVGDPEVEEALELVEELLKSSSS
B13: il10ra_site1_normal_mot_HHH_b2_04013_af2_000000040_0001_22_39_H_._HHH_b2_06566_0001_0000100002_0000002_0 (protein)
chain: SSSSAEELFEAVRKAIEEALELLREGNPEEAEEVLEEALRLARENNNHALVFSLELAIQDVSSSS
B14: il10ra_site1_normal_mot_HHH_b1_03559_000000151_0001_22_39_H_._HHH_b1_02435_af2_0001_0000100002_0000001_0 (protein)
chain: SSSSSEEATKLLDEAIRLLSEGDFEEAEELLEEALRLARELGDESLARLIEITLRFAREAGSSSS
B15: il10ra_site1_normal_mot_HHH_b2_03220_af2_000000223_0001_23_40_H_._HHH_b1_06566_0001_0000200018_0000001_0 (protein)
chain: SSSSSEEVWELLRRALELLARGNPEEAEEVAREAERLAEERGSEVLLLAVEFLLRAIEEHSSSSS
B16: il10ra_site1_sap_25_mot_HHH_b1_05370_000000138_0001_1_16_H_._HHH_b2_00447_0001_0000300028_0000001_0_0001 (protein)
chain: SSSSDTEEVFRLIEEAMELLADGNPEEAEEVAEEALKLAEELNNELFRINIEFVLRDIQGSSSSS
B17: il10ra_site1_sap_11_mot_HHH_b2_01447_af2_000000258_0001_1_20_H_._HHH_b1_03174_0001_0000400034_0000001_0_0001 (protein)
chain: SSSSDEEVEELIEQVKELLEKGDPERALQVVYEAVRIAAELGDEELLRRLQELIQEIYQVSSSSS
B18: il10ra_site1_sap_23_mot_HHH_b1_07286_af2_000000054_0001_1_19_H_._HHH_b2_05043_0001_0000100017_0000001_0_0001_af2pred_0001 (protein)
chain: SSSSSDEREARVEAEALLFFARYATNPEAVELALKLAEELAEEVNDEELKRKIEEVKEELSSSSS
B19: il10ra_site1_sap_21_mot_HHH_b1_06912_af2_000000235_0001_1_15_H_._HHH_b1_03798_0001_0000300017_0000001_0_0001 (protein)
chain: SSSSTYEQAIENVARQMEETIRRMGNPRAREYLEWLLRAARILGNEELEELIEELLEELRSSSSS
B20: il10ra_site1_sap_14_mot_HHH_b1_03873_af2_000000091_0001_1_14_H_._HHH_b2_04501_0001_0000800065_0000001_0_0001 (protein)
chain: SSSSSSEEQEEFRELEKELEEAKSAQERYEILERLIEVASKANDPELERLVHELLRRALRSSSSS
B21: il10ra_site1_sap_25_mot_HHH_b1_03333_000000091_0001_1_17_H_._HHH_b2_05927_af2_0001_0000500033_0000001_0_0001 (protein)
chain: SSSSDEEQQEVVRLAMEVAHLLIRGDHERVEELLEEMEELARELNDPAAERLVEIVREALRSSSS
B22: il10ra_site1_normal_mot_HHH_b1_02708_af2_000000019_0001_23_39_H_._HHH_eva_0544_af2_0002_0000200010_0000001_0 (protein)
chain: SSSSDEEEEELEKLLEEAEKLGNEAAFAVARLALHLLRLGRIDEEYIKILEHFIENALRQSSSSS
B23: il10ra_site1_normal_mot_HHH_b1_02062_000000185_0001_1_20_H_._HHH_b1_07949_0001_0000200011_0000001_0 (protein)
chain: SSSSNREAYELSREAAELVSEGDFEEARRVLEEAEEIAREAGNVNTLVTIEYLLELIERLLSSSS
B24: il10ra_site1_sap_12_mot_HHH_b1_06914_000000280_0001_1_18_H_._HHH_b2_06282_af2_0001_0000100003_0000002_0_0001 (protein)
chain: SSSSDDERSSEFMLLALELAIELGDEEQIRATASFIKALAEATNDEELEKELERLQEELGSSSSS
B25: il10ra_site1_normal_mot_HHH_b2_02900_000000189_0001_39_52_H_._HHH_b2_05056_0001_0000400020_0000002_0_af2pred_0001 (protein)
chain: SSSSSEHLEEAVKRLLRAAERAYELGDPEAAKLIVHFALALARAANNEELVRELEKLLEELSSSS
B26: il10ra_site1_sap_16_mot_HHH_b2_07144_000000289_0001_1_18_H_._HHH_b2_01768_0001_0000300036_0000001_0_0001 (protein)
chain: SSSSSAEESLEFLLLAVELAAENNDPEQVRAALRFAKRMAKWLNDEEVLKQLEELEEEFNSSSSS
B27: il10ra_site1_normal_mot_HHH_b2_00479_000000091_0001_1_12_H_._HHH_b2_03388_af2_0001_0000400024_0000002_0 (protein)
chain: SSSSTEENDEVYKLIREALELMARGNPEEARKVLEEAEEILEELNNRVLLFNVRFLLRELGSSSS
B28: il10ra_site1_normal_mot_HHH_b2_07442_000000239_0001_40_54_H_._ems_3hM_1358_0001_0000100001_0000001_1 (protein)
chain: DEKTSREAYEVSRLLAEADRRVKDEETLKELEELIQLLLEALIRNDDETLRELIEKAEEVVKEYS
B29: il10ra_site1_sap_12_mot_HHH_b1_00456_000000263_0001_1_17_H_._HHH_b1_08710_0001_0000300015_0000001_0_0001 (protein)
chain: SSSSDEELQEALELSKEAFELLLRGNPEEAKKVLEEALELAERGNDERLAKVIRDLLKVIDSSSS
B30: il10ra_site1_normal_mot_HHH_b1_08477_000000091_0001_40_57_H_._HHH_b1_03479_0001_0000200016_0000001_0 (protein)
chain: SSSSSEEEERVRQALRFAEALYKSGNPEAAESLLRVLVQSLRRLGNEELVELVEQVLEELNSSSS
B31: il10ra_site1_sap_16_mot_HHH_b2_07442_000000239_0001_40_54_H_._HHH_b2_00074_0001_0001000052_0000001_0_0001 (protein)
chain: SSSSSDLEELIEELEELVERNDMEEFHKVLREALEIAAELGDEEALERLLELTHKAVRASSSSSS
B32: il10ra_site1_sap_11_mot_HHH_b1_00666_000000226_0001_43_56_H_._HHH_b1_00924_af2_0001_0000300013_0000001_0_0001 (protein)
chain: SSSSEELYELIRKVLELRARGDPEEALRLLEEAEELAKEEGDFAFLFAIRHLLRDLEELLSSSSS
B33: il10ra_site1_normal_mot_HHH_b1_06837_000000150_0001_20_37_H_._HHH_b2_06947_0001_0000300009_0000001_0_af2pred_0001 (protein)
chain: SSSSSENEEVRRLLREAAELLNDGNPEEAKKVLEEAHELAEEANDHVARAVIEFLEKIIDSSSSS
B34: il10ra_site1_sap_17_mot_HHH_b1_03314_af2_000000278_0001_42_55_H_._HHH_b2_07118_0001_0000500022_0000002_0_0001 (protein)
chain: SSSSSRAEELARAAAKLVEQAIEHGDEKLARFMLLSLEMLAEESNDPELRKEVEELERELGSSSS
B35: il10ra_site1_sap_18_mot_HHH_b1_05189_000000097_0001_43_57_H_._HHH_b2_01591_af2_0001_0000400030_0000001_0_0001 (protein)
chain: SSSSSEREELAEAIIRLIEQMLKWNDEEALEHLLLALEMLVEEIGDPELRERLEELRELLSSSSS
B36: il10ra_site1_sap_21_mot_HHH_b1_03763_000000278_0001_22_38_H_._HHH_b2_05927_0001_0000300030_0000001_0_0001 (protein)
chain: SSSSDEVVQRAYRLLEEAVELDHKGNPEEAREVLEEVEELAEEANSWVLKAQVKFLLRLLESSSS
B37: il10ra_site1_normal_mot_HHH_b2_03328_af2_000000127_0001_1_19_H_._HHH_b2_01688_0001_0000200028_0000001_0 (protein)
chain: SSSSTEVAEKVYRLSREAAELFYQGNEEEAEEVLEEAERLAEENNNENLLFQVRFLLRQIGSSSS

Molecular target: il10ra, Q13651
Assay: yeast display titration

Apparent Kd, inactive:
B1 no binding seen
B2 no binding seen
B3 no binding seen
B4 no binding seen
B5 no binding seen
B6 no binding seen
B7 no binding seen
B8 no binding seen
B9 no binding seen
B10 no binding seen
B11 no binding seen
B12 no binding seen
B13 no binding seen
B14 no binding seen
B15 no binding seen
B16 no binding seen
B17 no binding seen
B18 no binding seen
B19 no binding seen
B20 no binding seen
B21 > 178 nM
B22 no binding seen
B23 no binding seen
B24 no binding seen
B25 no binding seen
B26 no binding seen
B27 no binding seen
B28 no binding seen
B29 no binding seen
B30 no binding seen
B31 no binding seen
B32 no binding seen
B33 no binding seen
B34 no binding seen
B35 no binding seen
B36 no binding seen
B37 no binding seen

A stretch taken from the entries so far, for reference:
Apparent Kd, inactive:
B27 no binding seen
B28 no binding seen
B29 no binding seen
B30 no binding seen
B31 no binding seen
B32 no binding seen
B33 no binding seen
B34 no binding seen
B35 no binding seen
B36 no binding seen
B37 no binding seen
